Source: PubChem BioAssay AID540303 (National Center for Advancing Translational Sciences (NCATS), 2011)
The campaign covered roughly 330,000 compounds. About 1,000 (0.3%) were called active. Inconclusive results, whose numbers are uncertain, are shown with a selection of clear calls. Calls follow the shape of the dose curve; as a rule, active = well fitted inhibition curve with a large enough effect; inconclusive = small, poorly fitted or top-dose-only effect; inactive = no such curve, though single readings can be large or run the other way; tested in mouse RAW 264.7 cells. A potency beside an inconclusive call is a rough fit, not a confirmed value.
% is scaled to controls: 0 for no effect and ±100 for the full control effect; potency is read from the fitted curve at half-maximal effect.

Experiment: qHTS for Inhibitors of Cell Surface uPA Generation; also: nearly all actives have a fitted effect of over 55% in size
Details: cell surface uPA generation assay; series mostly up to 38.3 µM; activity change, negative = inhibition: at the top concentration
How it was run: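 Murine RAW 264.7 cells are treated for 24 h with compound up to 38.3 uM final. Cell ATP, measured by ATP-Lite, remains high if blocking the uPA cascade prevents LF from reaching the cytoplasm.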
In the case of `Cc1ccc(NC(=S)N(CCCN2CCOCC2)Cc2ccccn2)cc1Cl`, the “activity change, negative = inhibition” value is reported as inactive: -2.92%. In the case of `N/C(=N\OC(=O)/C=C/c1ccccc1Cl)c1ccccn1`, the Potency is reported as active: 3.55 µM. In the case of `O=C(NNC(=O)C1[C@H]2CCCC[C@@H]12)NC1CCCCC1` (stereo partly drawn), the “activity change, negative = inhibition” value is reported as inactive: 20%. In the case of `CCOc1ccc(NC(C(=O)Nc2cccc(C(C)=O)c2)c2ccccc2)cc1` (stereo not drawn), the “activity change, negative = inhibition” value is reported as inactive: -2.94%. In the case of `COc1ccccc1OCCOc1ccc(C(=O)c2ccccc2)cc1`, the “activity change, negative = inhibition” value is reported as inactive: -17.1%. For `CN(C)/C=C/C(=O)c1ccn(S(=O)(=O)c2ccccc2)c1`, the Potency was inconclusive: 2.51 µM [inhibitor, partial curve]. For `COc1ccccc1C1=NN(C(=O)c2ccccc2)C(c2ccc(Br)cc2)C1` (stereo not drawn), the “activity change, negative = inhibition” value was inactive: -1.68%. For `CN(/N=C/c1ccc(O)cc1O)c1ncc(C(F)(F)F)cc1Cl`, the Potency was inconclusive: 11.2 µM [inhibitor, partial curve, poor fit]. For `COC(=O)C1=C(C(=O)OC)[C@@H]2N(Cc3ccccc3)c3ccccc3[C@@]23C[C@@H](C(=O)OC)N(C(=O)COCc2ccccc2)C3=N1`, the Potency was inconclusive: 6.31 µM [inhibitor, single point]. With `CC(OC(=O)c1cccnc1Cl)C(=O)NCc1ccccc1` (stereo not drawn) the “activity change, negative = inhibition” value was inactive: -3.95%. For `O=C(Oc1ccc(Cl)c2cccnc12)N1CCCCC1`, the “activity change, negative = inhibition” value was inactive: 12.5%. With `Fc1ccc(-c2cc(-c3nnc4n3CCCCC4)c3ccccc3n2)cc1` the Potency was inconclusive: 7.08 µM [inhibitor, single point]. For `CSc1nnc2ccc(-c3ccc(C)cc3)nn12`, the Potency was inconclusive: 5.62 µM [inhibitor, partial curve]. For `O=C(c1ccc(CS(=O)c2ccccc2Cl)o1)N1CCN(c2ccccn2)CC1` (stereo not drawn), the Potency was inconclusive: 1 µM [inhibitor, partial curve, poor fit]. In the case of `COC(=O)Cn1ccc(-c2ccc(Cl)cc2)c(C#N)c1=O`, the “activity change, negative = inhibition” value is reported as inactive: -0.665%. With `Cc1ccccc1NC(=S)NCc1ccc2c(c1)cc(C)n2C` the Potency was inconclusive: 10 µM [inhibitor, single point]. With `CC1(C)CC2CC(C)(CN2S(=O)(=O)c2ccc(C(=O)Nc3ccc(S(=O)(=O)N4CCOCC4)cc3)cc2)C1` (stereo not drawn) the “activity change, negative = inhibition” value was inactive: -3.92%. With `Cc1ccc2c(c1)sc(-c1ccc(N(C)C)cc1)[n+]2C` the Potency was inconclusive: 5.01 µM [inhibitor, single point]. In the case of `CCCc1cc(-c2n[nH]c(=S)n2CC)cs1`, the “activity change, negative = inhibition” value is reported as inactive: 17.7%. For `CN(C)c1cc(-c2ccccc2)nc(N)n1`, the Potency was active: 10 µM. For `CC#C[C@]1(O)CC[C@H]2[C@@H]3CCC4=CC(=O)CCC4=C3[C@@H](c3ccc(N(C)C)cc3)C[C@@]21C`, the Potency was inconclusive: 8.91 µM [inhibitor, single point]. In the case of `O=S(=O)(Nc1nc2ccccc2nc1Cl)c1ccc(Br)cc1`, the Potency is reported as inconclusive: 7.08 µM [inhibitor, partial curve, poor fit]. With `CCCCn1c(=S)[nH]c2cc(S(=O)(=O)N3CCOCC3)ccc21` the Potency was inconclusive: 7.08 µM [inhibitor, partial curve, poor fit]. For `O=C(NCCC1=CCCCC1)C1CCN(S(=O)(=O)c2cccc(C(F)(F)F)c2)CC1`, the Potency was inconclusive: 3.98 µM [inhibitor, partial curve]. In the case of `CCN(CC)c1c([N+](=O)[O-])c(=O)n(C)c2ccccc12`, the “activity change, negative = inhibition” value is reported as inactive: -0.892%. In the case of `COc1ccccc1CNS(=O)(=O)c1ccc(-c2cc(C)no2)cc1`, the Potency is reported as inconclusive: 0.891 µM [inhibitor, partial curve, poor fit]. For `CC(C)(C)C(=O)N1N=C(c2ccc(NS(C)(=O)=O)cc2)CC1c1cccs1` (stereo not drawn), the “activity change, negative = inhibition” value was inactive: 4.25%. In the case of `COc1ccc2cnn(CCOc3ccccc3)c(=O)c2c1OC`, the “activity change, negative = inhibition” value is reported as inactive: -5.32%. In the case of `Nc1c(-c2ccccc2)cnc2cc(-c3ccccc3)nn12`, the Potency is reported as inconclusive: 2 µM [inhibitor, full curve]. In the case of `CN(C(=O)c1ccc(NC(=O)Cc2cccc(NC(=O)C3CCN(C(=O)C4CCCC4)CC3)c2)cc1)C1CC1`, the Potency is reported as inconclusive: 10 µM [inhibitor, partial curve]. With `CCN(Cc1ccccc1)C(=O)c1ccc(CS(=O)c2ccccc2C)o1` (stereo not drawn) the “activity change, negative = inhibition” value was inactive: -3.49%. For `CCC(C)(C(=O)NC1CCCCC1)N(CC1CCCO1)C(=O)Cc1cccs1` (stereo not drawn), the “activity change, negative = inhibition” value was inactive: 2.17%. For `C=C1C(=O)O[C@H]2C1CC[C@@](C)(O)C13C=CC(C)(C21)C1(C3)C(=O)O[C@@H]2C3C(C)=CCC3[C@](C)(O)C[C@H](OC(C)=O)C21` (stereo partly drawn), the Potency was inconclusive: 10 µM [inhibitor, single point]. With `O=C(OCC(=O)c1ccc(Cl)s1)c1cnccn1` the “activity change, negative = inhibition” value was inactive: 3.35%. With `COc1cc(/C=C2\CC(C(C)(C)C)C/C(=C\c3cc(OC)c(OC)c(OC)c3)C2=O)cc(OC)c1OC` (stereo not drawn) the Potency was inconclusive: 8.91 µM [inhibitor, partial curve, poor fit]. For `Nc1ccc(N=Nc2ccc(N)cc2)cc1`, the Potency was inconclusive: 4.47 µM [inhibitor, partial curve, poor fit]. With `Cc1ccnc(NC(c2cccnc2)c2ccc3cccnc3c2O)c1` (stereo not drawn) the “activity change, negative = inhibition” value was inactive: -6.52%. In the case of `CC(/C=N/NC(=O)c1ccccc1C)=C\c1ccccc1`, the Potency is reported as inconclusive: 6.31 µM [inhibitor, partial curve, poor fit]. For `C[C@@]12C(=O)Nc3ccc(F)cc3C(=O)N1[C@H]1c3cc(Br)ccc3OC[C@@H]1[C@@H]2c1ccccc1`, the Potency was inconclusive: 12.6 µM [inhibitor, single point]. In the case of `Cc1ccc(NC(=O)CN2CCc3cc4c(cc3C2)OCCCO4)cc1C`, the “activity change, negative = inhibition” value is reported as inactive: -1.1%. With `CC(C(=O)N(C)C1CCS(=O)(=O)C1)N1C(=O)/C(=C/c2ccco2)SC1=S` (stereo not drawn) the Potency was inconclusive: 12.6 µM [inhibitor, single point]. For `COc1ccccc1N1CCN(C(=O)C2CCCN(S(=O)(=O)c3ccc(C)cc3)C2)CC1` (stereo not drawn), the Potency was inconclusive: 12.6 µM [inhibitor, partial curve, poor fit]. For `COc1ccc(/C=C/C(=O)NCC(=O)N/N=C/c2cc(Br)ccc2OCc2ccccc2)cc1`, the “activity change, negative = inhibition” value was inactive: 2.55%. For `COc1ccc(Cc2nnc(SC(C)C(=O)Nc3ccc(C(N)=O)cc3)o2)cc1` (stereo not drawn), the Potency was inconclusive: 0.0178 µM [inhibitor, partial curve, poor fit]. For `CCCCC(CC)CN=C(N)NC(N)=NCCCCCCN=C(N)NC(N)=NCC(CC)CCCC` (stereo not drawn), the Potency was inconclusive: 12.6 µM [inhibitor, single point]. With `COc1cc(CNCCc2c[nH]c3ccccc23)cc(Cl)c1OCC(N)=O` the “activity change, negative = inhibition” value was inactive: -6.46%. For `S=C(NCCc1ccc(Cl)cc1)NC1CC1`, the Potency was inconclusive: 1.12 µM [inhibitor, partial curve, poor fit]. For `Cc1ccc(C(=O)CNc2ccc(C)cc2C)cc1`, the “activity change, negative = inhibition” value was inactive: -1.58%. With `COc1ccc(-c2cc(-c3ccc(Cl)cc3)c(C#N)c(SCC(=O)O)n2)cc1` the “activity change, negative = inhibition” value was inactive: -12.6%. With `Cc1ccc(CNC(=O)C2CCN(S(=O)(=O)c3ccc4c(c3)CC(C)N4C(=O)C3CCC3)CC2)o1` (stereo not drawn) the Potency was inconclusive: 3.16 µM [inhibitor, partial curve, poor fit]. In the case of `Cc1ccc2nc(N(CCCN(C)C)C(=O)c3cc(-c4cccs4)nc4ccccc34)sc2c1`, the Potency is reported as inconclusive: 8.91 µM [inhibitor, partial curve, poor fit]. In the case of `Cc1cccc(C(=O)NC2CCN(C(=O)Nc3ccccc3C)CC2)c1`, the Potency is reported as inconclusive: 0.0089 µM [inhibitor, full curve, poor fit]. In the case of `CC(C)(C)NC(=O)N1CCN(c2nc(-c3ccccc3)ns2)CC1`, the “activity change, negative = inhibition” value is reported as inactive: -2.06%. With `O=C(NCCc1ccc(Cl)cc1)c1ccc2c(c1)OCCO2` the Potency was inconclusive: 10 µM [inhibitor, partial curve, poor fit]. With `COc1cccc(NC(=S)NN=C2CCCCCC2)c1` the “activity change, negative = inhibition” value was inactive: 6.44%. With `CCOC(=O)c1cc(C(=O)Nc2cccc(C)c2)nn1C` the Potency was inconclusive: 7.94 µM [inhibitor, partial curve, poor fit]. For `Cc1ccc(Oc2nc3ccccc3n3cccc23)cc1`, the “activity change, negative = inhibition” value was inactive: 0.415%. With `CCCc1nc(SCC(=O)Nc2nc3c(s2)CCCC3)c2ccccc2n1` the “activity change, negative = inhibition” value was inactive: -8.71%. In the case of `Cc1ccccc1OCC(=O)NN1Cc2ccccc2C1=N`, the “activity change, negative = inhibition” value is reported as inactive: 5.54%. In the case of `CSc1nccn1C(=O)c1ccccc1[N+](=O)[O-]`, the “activity change, negative = inhibition” value is reported as inactive: 10.7%. In the case of `COc1ccc(-c2oc3cccnc3c2C#CCO)cc1`, the Potency is reported as inconclusive: 11.2 µM [inhibitor, single point]. With `COc1ccc2nc(-c3ccccn3)[nH]c2c1` the Potency was inconclusive: 4.47 µM [inhibitor, partial curve, poor fit]. For `Cc1ccccc1NCC(=O)N/N=C/C(Br)=C/c1ccccc1`, the Potency was inconclusive: 12.6 µM [inhibitor, single point]. In the case of `CN(C)/C=C/C(=O)c1ccc(Cl)cc1Cl`, the “activity change, negative = inhibition” value is reported as inactive: 7.5%. With `O=S(=O)(Nc1ccccc1)c1ccc(-c2csnn2)cc1` the “activity change, negative = inhibition” value was inactive: 0.932%. In the case of `O=C(COc1ccccc1)NNc1nc2c(F)cccc2s1`, the “activity change, negative = inhibition” value is reported as inactive: 3.84%. In the case of `Cc1nn(-c2ccccc2Cl)c(Cl)c1/C=C(\C#N)C(N)=O`, the Potency is reported as inconclusive: 10 µM [inhibitor, partial curve, poor fit]. In the case of `CCc1nnc(NS(=O)(=O)c2ccc(NC(=O)c3ccccc3)cc2)s1`, the “activity change, negative = inhibition” value is reported as inactive: 3.3%. With `COc1ccc(-c2c(C#Cc3ccccc3)c3ccccc3n2C)cc1` the Potency was inconclusive: 3.55 µM [inhibitor, partial curve]. In the case of `COc1ccc(-c2sc3ccccc3c2/C=C/c2ccc(OC)c(OC)c2)cc1`, the Potency is reported as inconclusive: 11.2 µM [inhibitor, single point]. For `COCCSc1ncnc2c1oc1nc3c(cc12)COC(C)(C)C3`, the Potency was inconclusive: 2.82 µM [inhibitor, partial curve, poor fit]. With `C[C@H](NS(=O)(=O)c1ccccc1)C(=O)N1CCN(C(c2ccccc2)c2ccccc2)CC1` the Potency was inconclusive: 12.6 µM [inhibitor, partial curve, poor fit]. With `C=CCC[C@@H](Cc1ccc(F)cc1)C(=O)O[C@H](CNC(=O)[C@H](CC=C)CC(=O)N(CCO)Cc1ccccc1)c1ccccc1` the Potency was inconclusive: 7.94 µM [inhibitor, partial curve].
